# Laboratory results taken from paper PMC6199744, “Development of Chemical Proteomics for the Folateome and Analysis of the Kinetoplastid Folateome” (ACS Infectious Diseases, 2018).
# The source gives many values for each of these; only a part stands here.
# Tested on: L. major lysate proteins
# Assay: Multitargeted bead mixture chemoproteomics, single concentration competition, proteome-wide
# Assay type: binding
# Conditions: for fold change: vehicle control = 1
smiles,measurement,setting,value
CCCCCCOc1cccc(Cc2cnc(N)nc2N)c1 [compound 2],fold change,"protein LMJF.11.1160 PROTEIN TRANSPORT PROTEIN SEC31, PUTATIVE",1.1
same,fold change,"protein LMJF.12.0030 […]-1 SUBUNIT, PUTATIVE",1.07
same,fold change,protein LMJF.12.0530 GLUCOSE-6-PHOSPHATE ISOMERASE,1.64
same,fold change,protein LMJF.12.0670 […] OXIDASE SUBUNIT IV,1.08
same,fold change,"protein LMJF.13.0570 40S RIBOSOMAL PROTEIN S12, PUTATIVE",1.22
same,fold change,"protein LMJF.13.1190 ADENYL[…], PUTATIVE",1.05
same,fold change,"protein LMJF.13.1660 CHAPERONIN TCP20, PUTATIVE",1.06
same,fold change vs vehicle control,"protein LMJF.14.0190 HY[…], CONSERVED",1.14
same,fold change,protein LMJF.14.0460 CYS[…]-LYASE-LIKE PROTEIN,1.06
same,fold change,"protein LMJF.14.0680 FATTY ACID ELONGASE, PUTATIVE",1.25
same,fold change,protein LMJF.14.1160 ENOLASE,1.15
same,fold change,"protein LMJF.14.1440 HY[…], CONSERVED",1.01
same,fold change,"protein LMJF.15.0190 HYPOTHETICAL PROTEIN, CONSERVED",0.97
same,fold change,protein LMJF.15.1160 TR[…],1.16
same,fold change vs vehicle control,"protein LMJF.15.1380 NUCLEOLAR RNA BINDING PROTEIN, PUTATIVE",1.29
same,fold change,"protein LMJF.16.0760 TRANSALDOLASE, PUTATIVE",1.31
same,fold change,"protein LMJF.16.0940 DYNEIN LIGHT CHAIN, PUTATIVE",1.07
same,fold change,protein LMJF.17.0081 […] 1-ALPHA,1.16
same,fold change,"protein LMJF.17.0980 HY[…], CONSERVED",1.04
same,fold change,"protein LMJF.18.0210 HYPOTHETICAL PROTEIN, CONSERVED",1.36
same,fold change,"protein LMJF.18.0580 PEROXISOMAL ENOYL-COA HYDRATASE, PUTATIVE",0.98
same,fold change,"protein LMJF.18.0680 CITRATE SYNTHASE, PUTATIVE",1.24
same,fold change,"protein LMJF.18.0740 […] TU, PUTATIVE",1.02
same,fold change,"protein LMJF.18.1010 DYNEIN LIGHT CHAIN 2B, CYTOPLASMIC, PUTATIVE",0.93
same,fold change vs vehicle control,"protein LMJF.18.1210 PROLYL-TRNA SYNTHETASE, PUTATIVE,BI[…]-TRNA SYNTHETASE, PUTATIVE",1.05
same,fold change,"protein LMJF.18.1380 PYRUVATE DEHYDROGENASE E1 COMPONENT ALPHA SUBUNIT, PUTATIVE",0.85
same,fold change,"protein LMJF.19.0100 FIBRILLARIN, PUTATIVE",0.86
same,fold change vs vehicle control,protein LMJF.19.0710 […] DEHYDROGENASE,1.44
same,fold change,"protein LMJF.19.0750 HYPOTHETICAL PROTEIN, CONSERVED",0.89
same,fold change,protein LMJF.19.0995 4-COUMARATE:COA LIGASE-LIKE PROTEIN,1.34
same,fold change,"protein LMJF.19.1010 HY[…], CONSERVED",1.11
same,fold change,protein LMJF.19.1420 CYSTEINE PEPTIDASE A (CPA),0.98
same,fold change,protein LMJF.19.1560 INOSINE-5'-MONOPHOSPHATE DEHYDROGENASE,1.01
same,fold change vs vehicle control,"protein LMJF.19.1620 POTASSIUM VOLTAGE-GATED CHANNEL, PUTATIVE",0.99
same,fold change,"protein LMJF.21.0280 HY[…], CONSERVED",1.24
same,fold change,"protein LMJF.21.0540 LA RNA BINDING PROTEIN, PUTATIVE",1.21
same,fold change,"protein LMJF.21.1090 T-COMPLEX PROTEIN 1, DELTA SUBUNIT, PUTATIVE",1.03
same,fold change vs vehicle control,"protein LMJF.21.1552 RNA HELICASE, PUTATIVE",1.1
same,fold change,"protein LMJF.21.1710 […] OXIDASE SUBUNIT VI, PUTATIVE",1
same,fold change,"protein LMJF.21.1830 […] 5 SUBUNIT, PUTATIVE",1.17
same,fold change,"protein LMJF.22.0420 40S RIBOSOMAL PROTEIN S15, PUTATIVE",1.13
same,fold change,protein LMJF.22.1360 FARNESYL PYR[…],1.17
same,fold change,"protein LMJF.22.1450 CYCLOPHILIN 6, PUTATIVE",1.07
same,fold change,protein LMJF.23.0040 PEROXIDOXIN,1.19
same,fold change,"protein LMJF.23.0200 ENDORI[…]-PSP (PB5), PUTATIVE",1.04
same,fold change,"protein LMJF.23.0560 KINESIN, PUTATIVE",0.99
same,fold change,"protein LMJF.25.1710 PYRUVATE DEHYDROGENASE E1 BETA SUBUNIT, PUTATIVE",0.86
same,fold change,"protein LMJF.26.0280 HYPOTHETICAL PROTEIN, CONSERVED",1.23
same,fold change,"protein LMJF.26.0830 […], PUTATIVE",1.08
same,fold change,"protein LMJF.27.0190 […] 7 SUBUNIT, PUTATIVE",1.07
same,fold change,"protein LMJF.27.0560 PROTEIN KINASE, PUTATIVE,CDC2-RELATED KINASE, PUTATIVE",1.11
same,fold change,protein LMJF.27.0760 GTP-binding protein homologue,1.09
same,fold change,"protein LMJF.27.0930 ISOVALERYL-COA DEHYDROGENASE, PUTATIVE",1.19
same,fold change,"protein LMJF.27.1260 T-COMPLEX PROTEIN 1, BETA SUBUNIT, PUTATIVE",0.99
same,fold change,"protein LMJF.27.1300 HY[…], CONSERVED",1.02
same,fold change,"protein LMJF.27.1390 60S ACIDIC RIBOSOMAL SUBUNIT PROTEIN, PUTATIVE",1.18
same,fold change,"protein LMJF.27.2330 GTP BINDING PROTEIN, PUTATIVE",1.08
same,fold change,protein LMJF.28.0960 40S RIBOSOMAL PROTEIN S14,1.19
same,fold change vs vehicle control,"protein LMJF.28.0980 P27 PROTEIN, PUTATIVE",1.05
same,fold change,"protein LMJF.28.2260 […] PROTEIN, PUTATIVE",1.11
same,fold change,"protein LMJF.28.2420 2-OXOGLUTARATE DEHYDROGENASE, E2 COMPONENT, DIHYDROLIPOAMIDE SUCCINYLTRANSFERASE, PUTATIVE",1.14
same,fold change,"protein LMJF.28.2430 VACUOLAR ATP SYNTHASE SUBUNIT B, PUTATIVE",0.88
same,fold change,"protein LMJF.28.2460 RIBOSOMAL PROTEIN S29, PUTATIVE",1.19
